These are yes or no findings as the source states them, for the method shown. In cells and extracts the contact can be indirect. Some entries that bind do so weakly or less than the wild type.
Biological target: HEXIM1 (human (endogenous in MRC5)) (UniProt O94992)
Test: co-IP

Protein sequences, listed by entry. Tags and fused reporters are not part of them. Lines headed by an entry give the natural chain unless they say otherwise; changes in a name come on top.
UniProt O94992: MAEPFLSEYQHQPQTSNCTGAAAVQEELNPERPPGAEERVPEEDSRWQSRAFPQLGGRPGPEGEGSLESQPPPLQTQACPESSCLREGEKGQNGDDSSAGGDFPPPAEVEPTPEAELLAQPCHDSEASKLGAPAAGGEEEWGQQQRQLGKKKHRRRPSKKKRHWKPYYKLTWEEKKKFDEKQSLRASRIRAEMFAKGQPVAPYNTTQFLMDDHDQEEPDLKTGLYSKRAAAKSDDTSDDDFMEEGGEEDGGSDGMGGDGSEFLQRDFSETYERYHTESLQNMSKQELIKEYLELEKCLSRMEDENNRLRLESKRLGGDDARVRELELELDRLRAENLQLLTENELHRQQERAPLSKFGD
UniProt P50750: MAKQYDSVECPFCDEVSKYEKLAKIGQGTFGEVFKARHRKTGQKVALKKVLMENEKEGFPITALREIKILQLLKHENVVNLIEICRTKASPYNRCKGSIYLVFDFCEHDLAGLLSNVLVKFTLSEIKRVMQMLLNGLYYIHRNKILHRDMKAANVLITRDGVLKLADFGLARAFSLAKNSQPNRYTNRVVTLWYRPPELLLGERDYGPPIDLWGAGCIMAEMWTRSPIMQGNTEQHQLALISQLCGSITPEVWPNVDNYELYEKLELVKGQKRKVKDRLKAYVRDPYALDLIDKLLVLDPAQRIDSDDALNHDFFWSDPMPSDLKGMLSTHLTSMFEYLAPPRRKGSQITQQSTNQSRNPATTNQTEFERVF

binding: binds
Substance: CDK9/CyclinT1 (from UniProt P50750 1-372; O60563 1-726) (complex)
